This is an account of results in patent publication US8658403B2, “Method for producing polyhydroxyalkanoic acid” (priority 2009, dated 2014).

Structures are written as SMILES.

This data set has as its system BM07-ΔphaZ. Put plainly: Aromatic PHA production, one-step cultivation on 50 mM fructose and 10 mM 5-PV or 6PC. The class given is cell-based, Pseudomonas fluorescens. Particulars: 1 mM salicylic acid, 30° C., culture time 72 h. As for the experimental part:
[…] Salicylic acid was dissolved by adding sodium hydroxide and the pH of the solution was adjusted to 7.2 before adding to medium. Cell growth was determined by measuring dry cell weight (DCW). The remaining fructose was measured using DNS method and the remaining 11-POU or other carboxylic acids were determined by gas chromatography. The cells were isolated by centrifuging (10,000×g, 10 min), the cell suspension was washed with methanol and dried under vacuum at room temperature for 48 hours. The remaining NH4^+ was measured using Nessler's reagent. In the time-course profiling experiments, a set of culture flasks equal to the planned sampling times (every 4 or 6 h) was prepared and cultivated under the same culture condition. One of the flasks was withdrawn every scheduled time and the medium (50 ml) was centrifuged and analyzed.
The monomer composition of the PHA in cells was determined by analyzing the methyl esters, recovered from a sulfuric acid/methanol treatment of the cells, using a Hewlett-Packard HP5890 Series II gas chromatograph equipped with a HP-1 capillary column and a flame ionization detector. The gas chromatography (GC) run conditions were as follows: initial temperature of 80° C. for 2 min; heating rate of 8° C./min; final temperature of 250° C. for 6.75 min; carrier (He) flow rate of 3 ml/min; injector temperature of 230° C.; and detector temperature of 280° C. The standardization of each GC peak was made against the PHA of known structure characterized by quantitative NMR analyses

On to `O=C(O)c1ccccc1O` [Salicylic acid, salicylic acid], for which the Conversion yield is, setting by setting: (50 mM fructose + 10 mM 5PV) 0.591 ± 0.002; (50 mM fructose + 10 mM 5PV, listed as salicylic acid) 0.59; (50 mM fructose + 10 mM 6PC) 0.333 ± 0.002.
